In patent publication US6013802A, “Fluorescent conjugates of metal-chelating nitrogen heterocycles” (Molecular Probes, Inc., priority 1997, dated 2000):
At least one read-out could not be matched to a standard name with certainty.

Experiments:
[1] = Binding affinity of indicator for Cu2+ by fluorescence titration; settings: 1 μM dye in 5 mM MOPS pH 7.0; excitation 488 nm, emission 515 nm; CuCl2 zero (10 mM EGTA) to 10 μM; read-out: dissociation constant for Cu^2+
[2] = Binding affinity of indicator for Cu+ by fluorescence titration; settings: 1 μM dye in 5 mM MOPS pH 7.0; excitation 488 nm; aliquots of Cu+ solution
[3] = Binding affinity of indicator for Hg2+ by fluorescence titration (Hill plot); settings: 1 μM indicator; HgCl2 from cation-free (10 mM EGTA) to 1.0 μM Hg2+; Hill plot of fluorescence decrease; read-out: Kd (Hg^2+)

Compound: O=C1OC2(c3ccc(O)cc3Oc3cc(O)ccc32)c2ccc(NC(=S)Nc3cc4cccnc4c4ncccc34)cc21
- Kd [1]: 3 µM
- Kd [2]: 0.3 µM
- Kd [3]: 0.3 µM
